Patent US20240418707A1, “SELF-ORGANIZING NEURO-MUSCULAR JUNCTION CELL CULTURE MODEL” (Max-Delbrück-Centrum für Molekulare Medizin in der …, priority 2023, published 2024)
At least one compound was matched to its structure with a doubt left.

Test system: SMA type I hiPSC derived soNMJ cultures
Assay: Muscle contraction analysis in SMA type I soNMJ model
Format: cell-based, human
Settings: day 50, 10 μM, compared to H1 control
Procedure: Three different regions of the same coverslip were recorded for contraction analysis using a Leica SP8 confocal microscope. Each region was recorded twice for 3 minutes using brightfield with 20× zoom. To quantify the muscle contraction, each movie was analyzed individually using MuscleMotion (an open source ImageJ Macro). A reference frame was automatically detected by MuscleMotion to measure the contraction as a variation in pixel over time. The results were then plotted in Prism8 (GraphPad).

CC(=O)OCC[N+](C)(C)C [acetylcholine] was tested, and the “muscle contraction in SMA type I soNMJ” value was “did not respond” and the “muscle contraction in SMA type I soNMJ” value (listed as Acetylcholine) was “did not stimulate contraction”.
